# Results reported in paper PMC12582567, “Short heat shock factor A2 regulates heat resistance and growth balance in Arabidopsis”.
# Protein sequences, listed by entry. Tags and fused reporters are not part of them.
# UniProt Q8GYY1: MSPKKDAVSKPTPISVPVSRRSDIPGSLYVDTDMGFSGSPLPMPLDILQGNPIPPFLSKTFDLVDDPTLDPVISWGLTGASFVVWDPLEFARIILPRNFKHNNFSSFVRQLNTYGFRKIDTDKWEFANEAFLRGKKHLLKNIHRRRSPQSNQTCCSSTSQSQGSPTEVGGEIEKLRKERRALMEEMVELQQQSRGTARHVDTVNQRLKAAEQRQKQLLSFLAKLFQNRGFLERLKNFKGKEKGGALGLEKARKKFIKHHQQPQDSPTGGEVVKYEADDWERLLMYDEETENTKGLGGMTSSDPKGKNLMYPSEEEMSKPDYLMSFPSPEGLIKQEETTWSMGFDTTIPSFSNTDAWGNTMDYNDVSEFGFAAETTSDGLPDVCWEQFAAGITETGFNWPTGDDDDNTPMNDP
# UniProt Q9SV12: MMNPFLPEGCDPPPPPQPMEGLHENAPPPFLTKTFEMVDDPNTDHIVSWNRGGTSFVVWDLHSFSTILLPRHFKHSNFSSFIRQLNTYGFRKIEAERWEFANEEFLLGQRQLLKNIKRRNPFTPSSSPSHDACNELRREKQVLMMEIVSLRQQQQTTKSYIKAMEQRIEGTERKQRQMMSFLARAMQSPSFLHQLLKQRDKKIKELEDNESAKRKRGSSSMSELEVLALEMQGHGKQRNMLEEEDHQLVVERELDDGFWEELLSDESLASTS
# UniProt Q9SCW5: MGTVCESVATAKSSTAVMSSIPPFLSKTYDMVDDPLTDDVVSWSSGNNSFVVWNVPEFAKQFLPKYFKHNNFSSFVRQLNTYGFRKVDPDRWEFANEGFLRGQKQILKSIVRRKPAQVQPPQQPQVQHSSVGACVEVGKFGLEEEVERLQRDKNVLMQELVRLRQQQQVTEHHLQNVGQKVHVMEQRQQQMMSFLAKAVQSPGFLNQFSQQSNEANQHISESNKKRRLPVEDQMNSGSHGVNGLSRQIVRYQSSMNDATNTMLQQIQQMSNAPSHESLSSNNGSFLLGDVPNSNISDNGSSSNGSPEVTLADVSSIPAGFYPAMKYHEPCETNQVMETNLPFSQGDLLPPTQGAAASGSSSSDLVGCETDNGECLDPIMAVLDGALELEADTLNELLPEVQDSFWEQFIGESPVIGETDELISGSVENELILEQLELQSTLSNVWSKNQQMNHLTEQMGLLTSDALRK
# UniProt Q9T0D3: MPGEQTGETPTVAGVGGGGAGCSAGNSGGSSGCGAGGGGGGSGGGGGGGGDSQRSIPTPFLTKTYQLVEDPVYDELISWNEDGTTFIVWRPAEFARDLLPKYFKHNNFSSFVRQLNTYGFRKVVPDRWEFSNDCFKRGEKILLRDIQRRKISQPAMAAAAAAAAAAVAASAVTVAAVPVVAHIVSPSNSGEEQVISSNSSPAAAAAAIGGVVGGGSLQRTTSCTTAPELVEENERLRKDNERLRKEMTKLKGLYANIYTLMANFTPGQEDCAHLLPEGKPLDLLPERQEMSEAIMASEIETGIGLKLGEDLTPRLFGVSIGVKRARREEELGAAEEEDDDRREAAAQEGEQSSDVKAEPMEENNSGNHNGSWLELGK
# Biological target: BD-S-HsfA2 (Arabidopsis (A. thaliana)) (UniProt J7G1E7)
# Test: two-hybrid; bait BD-S-HsfA2 (pGBKT7) cotransformed with AD-HSF prey plasmids (pGAD424) into the Y2H Gold yeast strain; spot assay
row,binding,Substance
1,binds,AD-HsfA3 (from UniProt Q8GYY1 1-412)
2,binds,AD-HsfA7a (from UniProt Q9SV12 1-272)
3,binds,AD-HsfA1e (from UniProt Q9SCW5 1-468)
4,binds,AD-HsfB2b (from UniProt Q9T0D3 1-377)

# These are yes or no findings as the source states them, for the method shown. Binding can be weak; no strength is given.
